Measurements published in the supplement of paper PMC10338343.
± gives the standard deviation. The list shows a part of the results, in another mix than the full data. Many entries were measured with a wide error.

Legend:
[1] = system: MILI (PIWIL2) piRISC loaded with piRNA #1 (26 nt); experiment: pre-steady-state target cleavage rate (min^-1); MIWI and MILI are mouse PIWI proteins and EfPiwi is from a freshwater sponge; tags in brackets are library labels; higher = faster piRNA-guided slicing of the target; conditions: guide: piRNA #1 5'p-UGAGGUAGUAGGUUGUAUAGUAUCCA; auxiliary factor: 500 nM mouse GTSF1
Procedure, shortened: (§1)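 A burst-and-steady-state fit was used to obtain the pre-steady-state cleavage rate. The input data were sequencing reads of uncleaved targets, normalised to depth and to weakly complementary targets, from a […] transcribed, DNA-blocked target RNA library mixed with 1 nM active affinity-purified piRISC holding one synthetic guide, with or without 500 nM GTSF1 partner protein, in HEPES–potassium acetate buffer at 33 °C for 0–8 or 0–960 min. Three trials were pooled and k3 was capped at 0.0001 min^-1.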

[2] = system: MIWI (PIWIL1) piRISC loaded with piRNA #1 (30 nt); experiment: as above; conditions: guide: piRNA #1 5'p-UGAGGUAGUAGGUUGUAUAGUAUCCAGAGG; auxiliary factor: 500 nM mouse GTSF1
Procedure, shortened: as §1
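Note: 1 nM active piRISC with 0.1 nM target library at 33 °C single turnover.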

Sequence	pre-steady-state target cleavage rate [1]	pre-steady-state target cleavage rate [2]
GGAGACCUAUGUAUACAACCACUACCUCA	0.000661 ± 0.0086	0.000926 ± 0.0045
GGAGACCUAUGAUAUCAACCUACCACCUCA	0.00245 ± 0.0042	0.000906 ± 0.006
GGAGACCUAUGAUAUGUUGGUACUACCUCCA	0.000262 ± 0.022	0.000455 ± 0.0097
GGAGACCUAUGUAUACAACCUAUACCUCA	0.00145 ± 0.0049	0.000221 ± 0.01
GGAGACCAUACUAUACAGACCUACUACCUCA	0.00132 ± 0.0077	0.00095 ± 0.0087
GGAGACCUAUGUAUACAACGUACAACCUCA	0.00935 ± 0.0021	0.00107 ± 0.0051
GGAGACCUAACUAUACAACCUCUACCUCA	0.000453 ± 0.016	0.000125 ± 0.037
GGAGACCUAUGUAUACAACCUGACUACCUCA	0.00157 ± 0.004	0.000177 ± 0.015
GGAGACCUAUGUAUACAACCUUGUACCUCA	0.000978 ± 0.0048	0.000472 ± 0.0049
GGAGACCUAUGAAUUCAACCAACUACCUCA	0.00123 ± 0.0045	0.00012 ± 0.019
GGAGUGGAUACUAUACAACCUACAUGGAGA [g8:g26:cont:t1A]	0.000518 ± 0.0078	0.000128 ± 0.019
GGAGACCUAUGAAUACAACGUAGUACCUCA	0.000729 ± 0.0083	0.000184 ± 0.011
GGAGACCUAUGAUAUGAACCGUACUACCUCA	0.000392 ± 0.0064	0.000111 ± 0.027
GGAGACCUAUGAUUACAACCAACUACCACA	0.00189 ± 0.0046	0.000214 ± 0.014
GGAGACCUAUGAUAUCAACCUAUUACCUCA	0.000718 ± 0.0048	0.000131 ± 0.015
GGAGACCUUACUAUACAACCUCACUACCUCA	0.00224 ± 0.0046	0.00195 ± 0.0035
GGAGACCUAUGUAUAAACCUACUACCUCA	0.00112 ± 0.0057	0.000161 ± 0.017
GGAGACCUAUGAUAACAGCCUACUACCUCA	0.000889 ± 0.0072	0.000275 ± 0.0082
GGAGACCUAUGAAUACACCUACUACCUCA	0.0011 ± 0.0059	0.000821 ± 0.0052
GGAGACCUAUGAUAUGUUGGUACCACCUCA	0.000482 ± 0.016	0.000572 ± 0.01

Sequence	pre-steady-state target cleavage rate [1]	pre-steady-state target cleavage rate [2]
GGAGACCUAUGUAUACAACCUACAUGCUCA	0.00215 ± 0.0045	0.000263 ± 0.0091
GGAGACCUAUGAUAUGUACCCACUACCUCA	0.000318 ± 0.011	0.00023 ± 0.015
GGAGACCUAUGUAUACAACCAACUUCCUCA	0.0018 ± 0.0034	0.0011 ± 0.0043
GGAGACCUAUGAUAACAACCUACUACUCUCA	0.00358 ± 0.0038	0.00147 ± 0.0043
GGAGACCUAUGAAUACUACCUACUUCCUCA	0.0037 ± 0.0024	0.000183 ± 0.01
GGAGUGGAUACUAUACAACUCUACUACCUCA	0.00145 ± 0.0032	0.000221 ± 0.031
GGAGACCUAUGAUUACAACCUAUACCUCA	0.000992 ± 0.0074	0.000126 ± 0.022
GGAGACCUAUGAUAUGAACCUCACUACCUCA	0.000118 ± 0.032	0.0002 ± 0.014
GGAGACCUAUGUAUACAACCAACAACCUCA	0.00225 ± 0.0034	0.000584 ± 0.0041
GGAGACCUAUGUAUAGAACCUAGUACCUCA	0.00162 ± 0.0038	0.00117 ± 0.0035
GGAGACCUAUGUAUACAAGCCUACUACCUCA	0.000525 ± 0.012	0.000524 ± 0.0088
GGAGACCUAUGAUUACAACCUACUAGCUGA	0.000809 ± 0.0065	0.000121 ± 0.016
GGAGACCUAUGAUAUCAACCUACUACCUCCA	0.00207 ± 0.003	0.000278 ± 0.0069
GGAGACCUAUGAUUACAAGCUUCUACCUCA	0.00347 ± 0.0023	0.00127 ± 0.0045
GGAGACCUAUGAUAUGUUCCAACUAGCUCA	0.00033 ± 0.016	0.000303 ± 0.018
GGAGACCUAUGAAUACAACCUAGAACCUCA	0.0015 ± 0.0049	0.000309 ± 0.012
GGAGACCUAUGAUAUGUUCCUACUACGUCA	0.000235 ± 0.0088	0.000297 ± 0.009
GGAGACCUAUGAUAUCAACCUUCUACCUGA	0.000164 ± 0.016	0.000208 ± 0.011
GGAGACCUAUGAUUACAACCUACUUACCUCA	0.0057 ± 0.0019	0.00149 ± 0.0039
GGAGACCUAUCUAUACGAACCUACUACCUCA	0.000412 ± 0.015	0.000205 ± 0.012

Sequence	pre-steady-state target cleavage rate [1]	pre-steady-state target cleavage rate [2]
GGAGACCUAUGAUAUCGACCUACUACCUCA	0.000936 ± 0.0068	0.000172 ± 0.014
GGAGACCUAUGAUAUGUUGCUACUAACUCA	0.000223 ± 0.035	0.000159 ± 0.04
GGAGACCUAUGAUAUCACCUACUACCUCA	0.00625 ± 0.0026	0.000621 ± 0.0075
GGAGACCUAUGAUAUCAACCUACUACCCA	0.000132 ± 0.02	0.000123 ± 0.017
GGAGACCUAUGAUAACAACCUACUACCUCU [g2:g16:cont:t1U]	0.00588 ± 0.0024	0.00186 ± 0.0046
GGAGACCUAUGAUAUGUACGAUCUACCUCA	0.00014 ± 0.037	0.000253 ± 0.012
GGAGACCUAACUAUACAACCAUCUACCUCA	0.00176 ± 0.0089	0.0013 ± 0.011
GGAGACCUAUGAUAUGUUGCUUCUAGCUCA	0.000543 ± 0.012	0.00136 ± 0.0065
GGAGACCUAUGAUAUGCACCUACUACCUCA	0.000815 ± 0.0089	0.000832 ± 0.0056
GGAGACCUAUGAUAUCAACCUACUACAUCA	0.000846 ± 0.0067	0.00146 ± 0.0034
GGAGACCUAUGAUAUGAAGGUACUACCUCA	0.000607 ± 0.0083	0.00125 ± 0.0052
GGAGACCUAUGAUAUGUAUCUACUACCUCA	0.000124 ± 0.018	0.000321 ± 0.013
GGAGACCUAUGAUAUCAACCAUACUACCUCA	0.000131 ± 0.022	0.000229 ± 0.01
GGAGACCUAUGAUAUCAUCCUACUACGUCA	0.000554 ± 0.0078	0.000742 ± 0.0057
GGAGACCUAUGAAUACAAGCCUACUACCUCA	0.00045 ± 0.015	0.000165 ± 0.011
GGAGACCUAUGAUAACAACCAAGUACCUCA	0.00175 ± 0.0047	0.000575 ± 0.0033
GGAGACCUAUGAUAUGUUGCUAGUACCACA	0.000389 ± 0.015	0.000567 ± 0.0072
GGAGACCUAUGAUUACUACCUACUACCACA	0.00253 ± 0.0037	0.000195 ± 0.011
GGAGACCUAUGAUAUGUUCCUACUACCUCCA	0.000103 ± 0.032	0.000154 ± 0.015
GGAGACCUAUGUAUACAACCAACUACCACA	0.00188 ± 0.0039	0.000407 ± 0.0069

Pulled one by one from the list above (two):
Sequence	pre-steady-state target cleavage rate [1]	pre-steady-state target cleavage rate [2]
GGAGACCUAUGAUAUGUUGCUACUAACUCA	0.000223 ± 0.035	0.000159 ± 0.04
GGAGACCUAUGAUAUCAUCCUACUACGUCA	0.000554 ± 0.0078	0.000742 ± 0.0057
